In BindingDB's records for doi:10.1016/j.bmcl.2019.126806 (Temple University, 2020):

Biological target: T1, Lysosomal acid glucosylceramidase (Homo sapiens, UniProt P04062)
T1 sequence (P04062 whole entry): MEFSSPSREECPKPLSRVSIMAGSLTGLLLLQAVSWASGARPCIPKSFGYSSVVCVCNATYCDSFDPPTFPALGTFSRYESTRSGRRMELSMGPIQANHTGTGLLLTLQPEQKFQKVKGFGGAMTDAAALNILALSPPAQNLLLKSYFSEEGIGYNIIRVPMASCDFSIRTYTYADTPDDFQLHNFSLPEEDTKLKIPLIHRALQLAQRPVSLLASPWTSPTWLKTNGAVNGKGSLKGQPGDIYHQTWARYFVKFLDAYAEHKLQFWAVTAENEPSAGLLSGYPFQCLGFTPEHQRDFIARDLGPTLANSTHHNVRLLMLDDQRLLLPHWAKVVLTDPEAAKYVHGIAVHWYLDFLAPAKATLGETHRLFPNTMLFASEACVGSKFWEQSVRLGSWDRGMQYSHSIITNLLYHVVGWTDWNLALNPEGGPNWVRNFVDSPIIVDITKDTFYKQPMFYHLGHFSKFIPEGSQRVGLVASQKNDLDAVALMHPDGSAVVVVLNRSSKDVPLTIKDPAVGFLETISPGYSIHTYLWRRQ
Assay: Chaperone activity at GCase in wild-type human fibroblasts assessed as increase in GPN-induced reduction of calcium release using Fluo-8AM based fluorescence assay

EC50: 2500 nM
Compound: CC/C(=C(\c1ccccc1)c1ccc(OCCN(C)C)cc1)c1ccccc1 [(2-{4-[(1Z)-1,2-diphenylbut-1-en-1-yl]phenoxy}ethyl)dimethylamine]
